Results as given in publication PMC7764042.
These are yes or no findings as the source states them, for the method shown.

Key:
[1] = molecular target: recombinant human interferon beta-1a (human) (UniProt P01574); test: SPR; IFN-β immobilised by amine coupling; Ca^2+-depleted S100 as analyte (1 µM); 25 °C; 10 mM HEPES, 150 mM NaCl, 0.01% TWEEN 20, pH 7.4, 1 mM EDTA; both purified
[2] = molecular target: recombinant human interferon beta-1a (human) (UniProt P01574); test: SPR; IFN-β immobilised on ProteOn GLH chip by amine coupling; Ca^2+-loaded S100 as analyte (0.25–5 µM S100A1, 0.5–5 µM S100A4/A6, 5 µM other S100); 25 °C; 10 mM HEPES, 150 mM NaCl, 0.01% TWEEN 20, pH 7.4, 1 mM CaCl2; heterogeneous ligand model; both purified
[3] = molecular target: recombinant human interferon beta-1a (human), P01574; test: SPR; IFN-β immobilised by amine coupling; Ca^2+-depleted S100 as analyte (1 µM); 25 °C; 10 mM HEPES, 150 mM NaCl, 0.01% TWEEN 20, pH 7.4, 1 mM EDTA; both purified; settings: remark: other sources report otherwise
[4] = molecular target: recombinant human interferon beta-1a (human), P01574; test: SPR; IFN-β immobilised on ProteOn GLH chip by amine coupling; Ca^2+-loaded S100 as analyte (0.25–5 µM S100A1, 0.5–5 µM S100A4/A6, 5 µM other S100); 25 °C; 10 mM HEPES, 150 mM NaCl, 0.01% TWEEN 20, pH 7.4, 1 mM CaCl2; heterogeneous ligand model; both purified; settings: remark: other sources report otherwise

B1: recombinant human S100A13 (protein, UniProt Q99584 1-98)
chain: MAAEPLTELEESIETVVTTFFTFARQEGRKDSLSVNEFKELVTQQLPHLLKDVGSLDEKMKSLDVNQDSELKFNEYWRLIGELAKEIRKKKDLKIRKK
[1]
  binding: no binding (tested: 1 µM (1 mM EDTA))
[2]
  binding: no binding (tested: 5 µM; Kd not below 10 µM)

B2: recombinant human S100A14 (protein, UniProt Q9HCY8 1-104)
chain: MGQCRSANAEDAQEFSDVERAIETLIKNFHQYSVEGGKETLTPSELRDLVTQQLPHLMPSNCGLEEKIANLGSCNDSKLEFRSFWELIGEAAKSVKLERPVRGH
[1]
  binding: no binding (tested: 1 µM (1 mM EDTA))
[2]
  binding: no binding (tested: 5 µM; Kd not below 10 µM)

B3: recombinant human S100A15 (S100A7A) (protein, UniProt Q86SG5 1-101)
chain: MSNTQAERSIIGMIDMFHKYTGRDGKIEKPSLLTMMKENFPNFLSACDKKGIHYLATVFEKKDKNEDKKIDFSEFLSLLGDIAADYHKQSHGAAPCSGGSQ
[1]
  binding: no binding (tested: 1 µM (1 mM EDTA))
[2]
  binding: no binding (tested: 5 µM; Kd not below 10 µM)

B4: recombinant human S100B, P04271 1-92 (natural protein)
chain: MSELEKAMVALIDVFHQYSGREGDKHKLKKSELKELINNELSHFLEEIKEQEVVDKVMETLDNDGDGECDFQEFMAFVAMVTTACHEFFEHE
[3]
  binding: no binding (tested: 1 µM (1 mM EDTA))
[4]
  binding: no binding (tested: 5 µM; Kd not below 10 µM)

B5: recombinant human S100A7 (protein, UniProt P31151 1-101)
chain: MSNTQAERSIIGMIDMFHKYTRRDDKIEKPSLLTMMKENFPNFLSACDKKGTNYLADVFEKKDKNEDKKIDFSEFLSLLGDIATDYHKQSHGAAPCSGGSQ
[1]
  binding: no binding (tested: 1 µM (1 mM EDTA))
[2]
  binding: no binding (tested: 5 µM; Kd not below 10 µM)

B6: recombinant human S100A8 (protein, UniProt P05109 1-93)
chain: MLTELEKALNSIIDVYHKYSLIKGNFHAVYRDDLKKLLETECPQYIRKKGADVWFKELDINTDGAVNFQEFLILVIKMGVAAHKKSHEESHKE
[1]
  binding: no binding (tested: 1 µM (1 mM EDTA))
[2]
  binding: no binding (tested: 5 µM; Kd not below 10 µM)

B7: recombinant human S100A9 (protein, UniProt P06702 1-114)
chain: MTCKMSQLERNIETIINTFHQYSVKLGHPDTLNQGEFKELVRKDLQNFLKKENKNEKVIEHIMEDLDTNADKQLSFEEFIMLMARLTWASHEKMHEGDEGPGHHHKPGLGEGTP
[1]
  binding: no binding (tested: 1 µM (1 mM EDTA))
[2]
  binding: no binding (tested: 5 µM; Kd not below 10 µM)

B8: recombinant human S100A11 (protein, UniProt P31949 1-105)
chain: MAKISSPTETERCIESLIAVFQKYAGKDGYNYTLSKTEFLSFMNTELAAFTKNQKDPGVLDRMMKKLDTNSDGQLDFSEFLNLIGGLAMACHDSFLKAVPSQKRT
[1]
  binding: no binding (tested: 1 µM (1 mM EDTA))
[2]
  binding: no binding (tested: 5 µM; Kd not below 10 µM)

B9: recombinant human S100A12 (protein, UniProt P80511 1-92)
chain: MTKLEEHLEGIVNIFHQYSVRKGHFDTLSKGELKQLLTKELANTIKNIKDKAVIDEIFQGLDANQDEQVDFQEFISLVAIALKAAHYHTHKE
[1]
  binding: no binding (tested: 1 µM (1 mM EDTA))
[2]
  binding: no binding (tested: 5 µM; Kd not below 10 µM)
